Consider 24 targets from the supplement of paper PMC10849652.

The chains behind the UniProt entries cited, without tags or fusion partners. Where a name states a change or a piece, a line headed by the entry shows the natural chain unless it says otherwise.
UniProt Q7RTR2: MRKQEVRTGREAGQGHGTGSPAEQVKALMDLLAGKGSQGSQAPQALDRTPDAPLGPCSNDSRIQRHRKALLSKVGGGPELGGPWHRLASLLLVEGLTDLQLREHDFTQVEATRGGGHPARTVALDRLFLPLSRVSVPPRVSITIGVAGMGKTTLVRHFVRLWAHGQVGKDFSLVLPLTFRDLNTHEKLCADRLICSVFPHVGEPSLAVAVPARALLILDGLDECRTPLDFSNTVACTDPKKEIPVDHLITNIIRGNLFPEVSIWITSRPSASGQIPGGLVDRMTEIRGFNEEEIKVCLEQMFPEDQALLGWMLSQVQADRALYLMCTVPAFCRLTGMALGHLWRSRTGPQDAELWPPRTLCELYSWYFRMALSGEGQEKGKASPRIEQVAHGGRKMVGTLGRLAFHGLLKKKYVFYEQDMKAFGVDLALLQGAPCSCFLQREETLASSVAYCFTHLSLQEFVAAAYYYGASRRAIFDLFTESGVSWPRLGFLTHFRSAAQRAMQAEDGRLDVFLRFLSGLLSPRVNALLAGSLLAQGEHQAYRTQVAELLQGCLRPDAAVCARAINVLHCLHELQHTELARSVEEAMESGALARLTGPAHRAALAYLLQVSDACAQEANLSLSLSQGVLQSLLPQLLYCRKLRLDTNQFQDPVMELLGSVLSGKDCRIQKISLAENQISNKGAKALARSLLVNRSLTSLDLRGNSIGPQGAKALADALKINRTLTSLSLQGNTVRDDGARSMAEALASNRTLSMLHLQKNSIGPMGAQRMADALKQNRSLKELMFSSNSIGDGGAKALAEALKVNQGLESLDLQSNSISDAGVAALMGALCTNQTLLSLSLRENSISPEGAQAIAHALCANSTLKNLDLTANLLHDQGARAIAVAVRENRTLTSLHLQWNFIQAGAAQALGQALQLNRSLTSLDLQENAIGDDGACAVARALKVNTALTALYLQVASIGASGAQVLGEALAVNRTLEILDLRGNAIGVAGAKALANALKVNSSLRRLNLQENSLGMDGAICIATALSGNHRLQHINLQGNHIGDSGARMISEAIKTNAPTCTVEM
UniProt P08651, whole entry, looked up: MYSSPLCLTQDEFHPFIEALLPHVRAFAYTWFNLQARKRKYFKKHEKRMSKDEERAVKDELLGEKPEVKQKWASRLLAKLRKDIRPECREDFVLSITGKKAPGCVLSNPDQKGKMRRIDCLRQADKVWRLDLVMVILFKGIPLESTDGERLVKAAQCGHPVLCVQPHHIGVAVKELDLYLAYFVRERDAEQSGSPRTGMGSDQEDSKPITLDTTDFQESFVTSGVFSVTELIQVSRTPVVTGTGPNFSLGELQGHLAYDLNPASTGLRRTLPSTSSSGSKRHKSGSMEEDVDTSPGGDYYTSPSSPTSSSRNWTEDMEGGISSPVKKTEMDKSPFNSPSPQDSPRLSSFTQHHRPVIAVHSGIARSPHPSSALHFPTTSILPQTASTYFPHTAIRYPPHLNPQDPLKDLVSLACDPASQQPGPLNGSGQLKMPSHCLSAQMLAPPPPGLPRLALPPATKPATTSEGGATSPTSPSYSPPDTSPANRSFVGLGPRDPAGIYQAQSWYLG
UniProt O60936: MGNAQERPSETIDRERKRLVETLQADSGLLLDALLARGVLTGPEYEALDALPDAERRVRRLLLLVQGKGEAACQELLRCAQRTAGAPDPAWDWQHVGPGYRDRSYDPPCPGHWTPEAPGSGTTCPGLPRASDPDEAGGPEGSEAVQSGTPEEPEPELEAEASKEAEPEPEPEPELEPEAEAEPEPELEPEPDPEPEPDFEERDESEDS
UniProt Q13232: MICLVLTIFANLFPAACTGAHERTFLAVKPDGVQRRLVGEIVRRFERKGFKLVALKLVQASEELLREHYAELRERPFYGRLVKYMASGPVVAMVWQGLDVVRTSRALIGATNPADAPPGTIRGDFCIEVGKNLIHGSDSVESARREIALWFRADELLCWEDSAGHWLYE
UniProt O00221: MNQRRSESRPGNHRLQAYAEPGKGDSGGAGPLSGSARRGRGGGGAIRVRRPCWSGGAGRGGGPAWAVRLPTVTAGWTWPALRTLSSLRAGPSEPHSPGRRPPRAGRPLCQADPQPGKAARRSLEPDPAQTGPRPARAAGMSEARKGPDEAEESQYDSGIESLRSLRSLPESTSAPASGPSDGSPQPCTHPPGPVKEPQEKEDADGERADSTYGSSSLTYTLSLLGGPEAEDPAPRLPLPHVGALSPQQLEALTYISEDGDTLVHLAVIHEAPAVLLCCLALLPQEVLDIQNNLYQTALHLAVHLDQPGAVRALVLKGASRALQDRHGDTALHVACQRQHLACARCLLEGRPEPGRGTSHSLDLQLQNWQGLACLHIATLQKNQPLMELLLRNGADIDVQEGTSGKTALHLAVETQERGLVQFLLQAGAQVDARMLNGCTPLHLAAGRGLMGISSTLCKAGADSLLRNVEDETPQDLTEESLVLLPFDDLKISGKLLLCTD
UniProt Q9NX02: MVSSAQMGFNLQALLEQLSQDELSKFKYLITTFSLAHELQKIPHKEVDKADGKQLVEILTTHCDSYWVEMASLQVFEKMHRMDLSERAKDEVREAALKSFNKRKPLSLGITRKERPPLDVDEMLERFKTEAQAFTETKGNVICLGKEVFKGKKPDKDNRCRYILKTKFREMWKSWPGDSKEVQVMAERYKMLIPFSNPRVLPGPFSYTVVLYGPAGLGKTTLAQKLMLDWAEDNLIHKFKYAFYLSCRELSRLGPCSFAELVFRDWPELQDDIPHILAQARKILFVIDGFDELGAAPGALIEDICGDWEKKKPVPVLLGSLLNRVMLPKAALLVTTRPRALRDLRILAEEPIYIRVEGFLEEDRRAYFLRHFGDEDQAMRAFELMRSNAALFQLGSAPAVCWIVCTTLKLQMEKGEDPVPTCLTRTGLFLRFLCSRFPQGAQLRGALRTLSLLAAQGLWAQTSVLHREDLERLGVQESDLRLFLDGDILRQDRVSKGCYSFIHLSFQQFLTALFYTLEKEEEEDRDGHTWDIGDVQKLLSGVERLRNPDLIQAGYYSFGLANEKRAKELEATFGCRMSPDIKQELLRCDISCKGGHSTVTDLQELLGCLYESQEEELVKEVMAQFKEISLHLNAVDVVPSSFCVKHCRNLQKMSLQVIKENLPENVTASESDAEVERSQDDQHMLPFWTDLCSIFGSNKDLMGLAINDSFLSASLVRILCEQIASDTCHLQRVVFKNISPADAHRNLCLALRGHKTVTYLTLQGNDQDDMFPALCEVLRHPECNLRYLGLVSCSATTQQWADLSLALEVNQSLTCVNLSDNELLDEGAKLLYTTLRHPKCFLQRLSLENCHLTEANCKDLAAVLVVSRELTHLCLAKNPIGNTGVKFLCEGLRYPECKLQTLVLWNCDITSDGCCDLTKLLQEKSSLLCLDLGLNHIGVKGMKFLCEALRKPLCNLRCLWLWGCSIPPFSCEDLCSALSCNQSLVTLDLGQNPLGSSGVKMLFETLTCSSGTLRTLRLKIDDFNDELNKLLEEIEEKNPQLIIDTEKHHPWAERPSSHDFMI
UniProt Q96JN8: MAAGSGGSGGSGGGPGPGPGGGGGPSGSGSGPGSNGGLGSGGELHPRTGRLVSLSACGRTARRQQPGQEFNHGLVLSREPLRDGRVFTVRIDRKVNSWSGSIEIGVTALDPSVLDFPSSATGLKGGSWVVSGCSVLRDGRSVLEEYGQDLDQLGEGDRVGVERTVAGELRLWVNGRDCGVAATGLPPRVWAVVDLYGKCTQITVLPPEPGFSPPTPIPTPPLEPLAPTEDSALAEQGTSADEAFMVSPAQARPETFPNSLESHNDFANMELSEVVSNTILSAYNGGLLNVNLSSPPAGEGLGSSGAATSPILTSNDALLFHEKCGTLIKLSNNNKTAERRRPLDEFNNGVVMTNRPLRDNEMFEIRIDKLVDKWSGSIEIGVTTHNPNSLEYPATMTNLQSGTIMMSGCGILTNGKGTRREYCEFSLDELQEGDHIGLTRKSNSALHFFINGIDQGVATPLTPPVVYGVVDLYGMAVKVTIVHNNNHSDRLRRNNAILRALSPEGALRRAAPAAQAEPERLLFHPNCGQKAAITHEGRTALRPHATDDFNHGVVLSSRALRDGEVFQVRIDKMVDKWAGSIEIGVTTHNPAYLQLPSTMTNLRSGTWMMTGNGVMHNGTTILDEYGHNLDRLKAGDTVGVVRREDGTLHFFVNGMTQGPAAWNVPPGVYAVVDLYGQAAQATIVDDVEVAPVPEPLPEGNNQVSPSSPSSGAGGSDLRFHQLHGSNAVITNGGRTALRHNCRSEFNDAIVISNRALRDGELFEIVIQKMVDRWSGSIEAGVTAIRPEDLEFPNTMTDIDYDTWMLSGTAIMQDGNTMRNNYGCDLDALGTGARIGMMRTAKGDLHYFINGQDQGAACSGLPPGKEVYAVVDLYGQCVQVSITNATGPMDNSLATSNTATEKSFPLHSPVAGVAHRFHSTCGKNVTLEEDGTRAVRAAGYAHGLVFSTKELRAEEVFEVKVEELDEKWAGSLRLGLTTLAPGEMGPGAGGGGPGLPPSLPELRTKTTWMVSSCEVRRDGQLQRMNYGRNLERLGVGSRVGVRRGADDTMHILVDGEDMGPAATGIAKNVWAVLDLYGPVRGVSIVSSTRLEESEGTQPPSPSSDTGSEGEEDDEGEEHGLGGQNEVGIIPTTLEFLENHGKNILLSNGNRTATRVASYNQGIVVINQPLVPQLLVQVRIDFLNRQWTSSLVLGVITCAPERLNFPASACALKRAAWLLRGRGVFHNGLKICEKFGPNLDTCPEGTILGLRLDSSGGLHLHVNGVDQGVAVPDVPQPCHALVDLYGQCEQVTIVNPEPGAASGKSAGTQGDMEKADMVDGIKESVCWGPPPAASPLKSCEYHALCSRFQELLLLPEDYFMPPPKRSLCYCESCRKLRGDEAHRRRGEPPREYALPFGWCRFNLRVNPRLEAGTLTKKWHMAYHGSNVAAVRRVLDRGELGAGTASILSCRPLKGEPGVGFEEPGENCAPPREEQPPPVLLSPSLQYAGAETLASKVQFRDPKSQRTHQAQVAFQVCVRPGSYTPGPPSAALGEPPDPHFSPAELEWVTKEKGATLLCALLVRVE
UniProt Q9BPW8: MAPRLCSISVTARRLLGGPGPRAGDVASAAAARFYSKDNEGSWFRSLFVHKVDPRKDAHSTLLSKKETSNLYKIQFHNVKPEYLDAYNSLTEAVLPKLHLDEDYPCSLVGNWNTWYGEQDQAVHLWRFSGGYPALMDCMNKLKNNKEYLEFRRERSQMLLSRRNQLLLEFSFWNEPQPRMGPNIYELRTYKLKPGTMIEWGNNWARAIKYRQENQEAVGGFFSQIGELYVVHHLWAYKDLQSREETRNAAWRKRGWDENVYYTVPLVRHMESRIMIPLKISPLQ
UniProt Q9UHY1: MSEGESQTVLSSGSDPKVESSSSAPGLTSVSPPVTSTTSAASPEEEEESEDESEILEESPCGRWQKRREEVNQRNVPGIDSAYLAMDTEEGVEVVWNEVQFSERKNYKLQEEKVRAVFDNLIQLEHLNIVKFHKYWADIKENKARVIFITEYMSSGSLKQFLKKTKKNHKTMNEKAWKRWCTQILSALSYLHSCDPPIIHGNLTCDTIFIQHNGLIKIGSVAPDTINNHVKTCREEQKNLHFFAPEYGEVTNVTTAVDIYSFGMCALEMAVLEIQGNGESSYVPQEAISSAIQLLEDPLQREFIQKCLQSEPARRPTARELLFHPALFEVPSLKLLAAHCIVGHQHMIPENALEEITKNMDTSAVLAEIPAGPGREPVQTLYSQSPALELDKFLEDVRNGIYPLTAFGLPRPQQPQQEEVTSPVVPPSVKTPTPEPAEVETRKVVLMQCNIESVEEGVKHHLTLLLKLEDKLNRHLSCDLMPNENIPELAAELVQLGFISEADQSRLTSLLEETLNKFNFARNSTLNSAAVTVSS
UniProt Q9UMS0: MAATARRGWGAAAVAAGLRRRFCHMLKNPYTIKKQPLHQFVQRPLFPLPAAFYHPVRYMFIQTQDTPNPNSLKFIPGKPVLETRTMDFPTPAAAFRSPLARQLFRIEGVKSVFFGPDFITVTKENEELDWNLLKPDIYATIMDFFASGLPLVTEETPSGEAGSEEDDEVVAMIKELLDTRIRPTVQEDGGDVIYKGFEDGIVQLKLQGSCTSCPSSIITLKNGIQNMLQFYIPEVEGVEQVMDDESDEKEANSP
UniProt P61916: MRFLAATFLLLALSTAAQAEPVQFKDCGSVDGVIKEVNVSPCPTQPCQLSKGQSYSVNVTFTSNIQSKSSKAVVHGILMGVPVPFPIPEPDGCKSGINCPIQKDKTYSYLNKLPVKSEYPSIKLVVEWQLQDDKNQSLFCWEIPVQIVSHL

This is one part of the list.

Compound in this assay: c1cn2cc(-c3ccc4cn[nH]c4c3)nc(Nc3ccc(N4CCOCC4)cc3)c2n1 [entospletinib]
Kind of assay: log2 fold change, soluble protein after heating vs DMSO (PISA); higher = thermal stabilisation; K562 cells, 10 uM, 30 min; active = over 0.2 and 3.5 SD of the protein, either way, in both replicates (recomputed). An outline of the steps:
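K562 cells at 2×10^6 cells/mL were given 10 μM compound for 30 min. Aliquots then went through 3 min of heating across 48°C-58°C, were pooled, and were extracted in PBS with 0.5% NP-40 at 4°C, and the supernatant after 21,000xg for 90 min was quantified by TMTpro 16plex LC-MS/MS with channel sums equalised. Thermal stability relative to control samples, from duplicates, is given as log2 fold change.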
With NLRC3 isoform 2 (UniProt Q7RTR2), the log2 fold change was inactive: 0.037. To NFIC (UniProt P08651) belongs inactive: 0.058; to NOL3 isoform 3 (UniProt O60936), inactive: 0.004; to NIP7 (UniProt Q9Y221), inactive: 0.096. For NEMF (UniProt O60524) the value was inactive: 0.045; for NIPA1 (UniProt Q7RTP0), inactive: -0.117; for NSL1 (UniProt Q96IY1), inactive: 0.064.

With NME3 (UniProt Q13232), the log2 fold change was inactive: 0.004. To NF1 (UniProt P21359) belongs inactive: 0.043; to NOA1 (UniProt Q8NC60), inactive: -0.093; to NMNAT3 (UniProt Q96T66), inactive: -0.068. To NFATC1 (UniProt O95644) belongs inactive: -0.088; to NOP16 (UniProt Q9Y3C1), inactive: -0.119; to NFKBIE (UniProt O00221), inactive: 0.016. To NLRP2 (UniProt Q9NX02) belongs inactive: 0.092; to NEURL4 (UniProt Q96JN8), inactive: 0.455; to NIPSNAP1 (UniProt Q9BPW8), inactive: 0.063. With NRBP1 (UniProt Q9UHY1), the log2 fold change is inactive: 0.004. To NSF (UniProt P46459) belongs inactive: 0.014; to NFU1 (UniProt Q9UMS0), inactive: -0.005. To NRAS (UniProt P01111) belongs inactive: 0.006; to NOMO1 (UniProt Q15155), inactive: 0.029; to NPTN (UniProt Q9Y639), inactive: 0.012.

As for NPC2 (UniProt P61916), the log2 fold change was inactive: -0.123.
